Experiment [1] deals with Aio-500 bait (C-terminal 149 amino acids of Aiolos fused in frame to the LexA DNA binding domain in pLex202) (mouse). Description: yeast two-hybrid, B42 prey against LexA bait, rate of blue colour on X-gal plates.
Experiment [2] has the same target. Description: yeast two-hybrid.
The target in experiment [3] is Aiolos-(FLAG) protein (mouse) (UniProt O08900). The experiment can be described thus: co-immunoprecipitation from transfected 293T cells, anti-FLAG IP, Helios Western.
The target in a further experiment is FLAG-Hel-1 (mouse) (UniProt P81183). The experiment is described as above.

Amino acid sequences for entries named in this document (tags omitted). A change or cut given only in a name is not applied to a line headed by its entry.
UniProt O08900: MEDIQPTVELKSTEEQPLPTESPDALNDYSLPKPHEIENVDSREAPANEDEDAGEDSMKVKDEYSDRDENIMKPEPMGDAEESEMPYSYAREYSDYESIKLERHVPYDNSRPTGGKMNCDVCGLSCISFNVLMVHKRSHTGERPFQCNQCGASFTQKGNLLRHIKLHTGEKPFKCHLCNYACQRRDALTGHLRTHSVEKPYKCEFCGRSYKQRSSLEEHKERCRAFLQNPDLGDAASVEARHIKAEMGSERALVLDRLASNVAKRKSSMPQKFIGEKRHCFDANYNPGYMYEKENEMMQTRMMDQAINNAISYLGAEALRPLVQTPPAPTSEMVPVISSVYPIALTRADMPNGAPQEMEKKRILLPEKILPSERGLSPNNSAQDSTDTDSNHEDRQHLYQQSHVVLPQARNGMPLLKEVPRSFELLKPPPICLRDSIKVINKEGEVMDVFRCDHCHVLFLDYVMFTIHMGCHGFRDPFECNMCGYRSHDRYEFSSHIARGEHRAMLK
UniProt P81183: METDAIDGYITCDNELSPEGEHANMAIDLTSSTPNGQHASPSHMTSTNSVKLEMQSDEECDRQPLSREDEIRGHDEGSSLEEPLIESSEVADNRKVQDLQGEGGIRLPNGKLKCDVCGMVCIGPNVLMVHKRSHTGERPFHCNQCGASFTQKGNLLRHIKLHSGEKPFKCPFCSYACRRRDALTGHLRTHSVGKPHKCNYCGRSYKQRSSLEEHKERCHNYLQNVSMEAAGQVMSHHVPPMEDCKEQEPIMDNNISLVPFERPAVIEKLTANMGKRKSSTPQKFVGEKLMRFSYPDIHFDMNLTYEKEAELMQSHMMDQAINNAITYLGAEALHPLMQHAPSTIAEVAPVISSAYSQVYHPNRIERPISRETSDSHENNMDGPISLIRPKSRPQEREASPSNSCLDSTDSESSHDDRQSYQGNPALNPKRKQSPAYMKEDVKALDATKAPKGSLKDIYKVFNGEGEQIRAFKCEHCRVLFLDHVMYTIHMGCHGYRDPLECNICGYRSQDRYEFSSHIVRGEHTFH

Results on 3 substances are retold here after patent US20050130265A1.

Results are given in words; binding and its absence hold for the method and conditions named. For some assays here: Binding seen in cells or lysates may run through a third protein. Some results given as binding are weak or reduced against the parent protein; the word gives no strength.

As for “full length Aiolos prey (B42 transcriptional activation domain fused in frame to full length Aiolos) (from UniProt O08900 1-507)”, the binding result in experiment [1] and in experiment [2] was “binds” throughout. With “Helios isoform Hel-1 (from UniProt P81183 1-526)”, in experiment [3], the binding entry is listed as “binds”. Regarding “Helios isoform Hel-2 (from UniProt P81183 1-526)”, the binding result (in experiment [3]; in the experiment with FLAG-Hel-1 (mouse)) was “binds” in each case.
